Source: paper PMC9266683
Results are given in words; binding and its absence hold for the method and conditions named. For part of these data: Binding seen in cells or lysates may run through a third protein. Some binding calls cover weakened binding; strength is not graded here. Where a sequence is shown, tags or fusion partners need not be part of it.

Protein sequences, listed by entry. Tags and fused reporters are not part of them.
UniProt O48686: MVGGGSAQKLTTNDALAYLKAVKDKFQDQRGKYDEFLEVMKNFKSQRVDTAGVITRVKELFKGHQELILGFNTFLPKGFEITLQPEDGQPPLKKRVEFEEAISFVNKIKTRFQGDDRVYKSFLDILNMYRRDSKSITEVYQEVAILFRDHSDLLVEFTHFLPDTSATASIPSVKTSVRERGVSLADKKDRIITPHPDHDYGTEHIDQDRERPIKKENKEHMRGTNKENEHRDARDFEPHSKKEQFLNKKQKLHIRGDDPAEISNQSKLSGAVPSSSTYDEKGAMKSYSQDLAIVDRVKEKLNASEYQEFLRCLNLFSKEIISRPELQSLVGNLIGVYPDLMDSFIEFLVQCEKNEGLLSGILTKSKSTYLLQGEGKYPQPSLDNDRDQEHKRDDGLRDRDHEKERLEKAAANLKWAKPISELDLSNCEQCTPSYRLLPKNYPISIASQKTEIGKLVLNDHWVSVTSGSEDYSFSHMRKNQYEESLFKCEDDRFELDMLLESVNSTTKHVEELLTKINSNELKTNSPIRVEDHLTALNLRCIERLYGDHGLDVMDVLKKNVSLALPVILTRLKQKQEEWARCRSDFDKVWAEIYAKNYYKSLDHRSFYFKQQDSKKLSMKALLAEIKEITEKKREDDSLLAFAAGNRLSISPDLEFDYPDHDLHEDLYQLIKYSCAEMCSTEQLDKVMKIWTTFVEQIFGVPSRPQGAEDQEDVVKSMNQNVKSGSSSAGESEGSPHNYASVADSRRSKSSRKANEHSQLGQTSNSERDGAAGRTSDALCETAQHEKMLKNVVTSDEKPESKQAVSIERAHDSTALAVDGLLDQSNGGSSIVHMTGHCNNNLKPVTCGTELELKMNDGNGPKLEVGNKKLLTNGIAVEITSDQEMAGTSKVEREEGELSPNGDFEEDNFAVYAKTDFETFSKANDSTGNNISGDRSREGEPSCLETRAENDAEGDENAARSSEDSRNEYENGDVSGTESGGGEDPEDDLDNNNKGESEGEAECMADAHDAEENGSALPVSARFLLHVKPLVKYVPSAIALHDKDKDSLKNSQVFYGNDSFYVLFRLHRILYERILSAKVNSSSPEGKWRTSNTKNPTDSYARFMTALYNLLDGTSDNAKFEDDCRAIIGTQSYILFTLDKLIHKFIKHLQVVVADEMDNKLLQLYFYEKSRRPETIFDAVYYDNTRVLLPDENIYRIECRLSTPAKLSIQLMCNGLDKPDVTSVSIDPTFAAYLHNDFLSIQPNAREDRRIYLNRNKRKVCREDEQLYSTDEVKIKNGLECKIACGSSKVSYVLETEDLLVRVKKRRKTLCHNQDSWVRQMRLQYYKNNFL
UniProt O04539: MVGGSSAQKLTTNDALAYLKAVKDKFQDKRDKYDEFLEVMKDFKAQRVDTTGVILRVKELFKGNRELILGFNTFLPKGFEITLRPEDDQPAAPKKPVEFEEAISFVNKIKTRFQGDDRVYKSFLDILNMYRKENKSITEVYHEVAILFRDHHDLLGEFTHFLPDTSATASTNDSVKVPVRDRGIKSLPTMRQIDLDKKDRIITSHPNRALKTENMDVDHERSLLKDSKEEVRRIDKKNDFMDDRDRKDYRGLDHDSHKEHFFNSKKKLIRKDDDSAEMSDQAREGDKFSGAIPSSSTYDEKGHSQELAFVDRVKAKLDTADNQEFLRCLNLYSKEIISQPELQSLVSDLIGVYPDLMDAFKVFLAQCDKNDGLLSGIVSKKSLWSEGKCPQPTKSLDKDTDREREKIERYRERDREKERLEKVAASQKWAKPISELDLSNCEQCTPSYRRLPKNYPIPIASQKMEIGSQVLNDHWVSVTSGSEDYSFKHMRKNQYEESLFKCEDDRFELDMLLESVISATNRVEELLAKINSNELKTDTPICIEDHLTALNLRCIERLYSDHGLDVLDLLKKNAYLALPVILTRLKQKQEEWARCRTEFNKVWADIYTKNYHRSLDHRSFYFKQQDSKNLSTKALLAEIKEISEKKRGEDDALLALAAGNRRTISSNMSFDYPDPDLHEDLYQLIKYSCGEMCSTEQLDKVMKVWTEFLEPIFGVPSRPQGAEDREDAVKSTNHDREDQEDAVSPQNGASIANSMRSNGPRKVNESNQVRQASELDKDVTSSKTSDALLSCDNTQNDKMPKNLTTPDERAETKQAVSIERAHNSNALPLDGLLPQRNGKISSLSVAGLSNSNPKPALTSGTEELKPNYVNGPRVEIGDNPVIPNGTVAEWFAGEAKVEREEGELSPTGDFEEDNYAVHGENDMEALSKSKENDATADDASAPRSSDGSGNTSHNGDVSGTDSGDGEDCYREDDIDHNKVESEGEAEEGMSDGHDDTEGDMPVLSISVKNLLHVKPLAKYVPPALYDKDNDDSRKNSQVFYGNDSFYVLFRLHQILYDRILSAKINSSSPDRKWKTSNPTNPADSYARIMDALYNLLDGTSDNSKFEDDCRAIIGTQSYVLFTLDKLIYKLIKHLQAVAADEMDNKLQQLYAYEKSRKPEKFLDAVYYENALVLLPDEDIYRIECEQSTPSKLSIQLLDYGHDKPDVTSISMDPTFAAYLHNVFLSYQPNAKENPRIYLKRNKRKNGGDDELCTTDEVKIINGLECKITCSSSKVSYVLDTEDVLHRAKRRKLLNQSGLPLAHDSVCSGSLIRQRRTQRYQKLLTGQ
UniProt Q9XIE1: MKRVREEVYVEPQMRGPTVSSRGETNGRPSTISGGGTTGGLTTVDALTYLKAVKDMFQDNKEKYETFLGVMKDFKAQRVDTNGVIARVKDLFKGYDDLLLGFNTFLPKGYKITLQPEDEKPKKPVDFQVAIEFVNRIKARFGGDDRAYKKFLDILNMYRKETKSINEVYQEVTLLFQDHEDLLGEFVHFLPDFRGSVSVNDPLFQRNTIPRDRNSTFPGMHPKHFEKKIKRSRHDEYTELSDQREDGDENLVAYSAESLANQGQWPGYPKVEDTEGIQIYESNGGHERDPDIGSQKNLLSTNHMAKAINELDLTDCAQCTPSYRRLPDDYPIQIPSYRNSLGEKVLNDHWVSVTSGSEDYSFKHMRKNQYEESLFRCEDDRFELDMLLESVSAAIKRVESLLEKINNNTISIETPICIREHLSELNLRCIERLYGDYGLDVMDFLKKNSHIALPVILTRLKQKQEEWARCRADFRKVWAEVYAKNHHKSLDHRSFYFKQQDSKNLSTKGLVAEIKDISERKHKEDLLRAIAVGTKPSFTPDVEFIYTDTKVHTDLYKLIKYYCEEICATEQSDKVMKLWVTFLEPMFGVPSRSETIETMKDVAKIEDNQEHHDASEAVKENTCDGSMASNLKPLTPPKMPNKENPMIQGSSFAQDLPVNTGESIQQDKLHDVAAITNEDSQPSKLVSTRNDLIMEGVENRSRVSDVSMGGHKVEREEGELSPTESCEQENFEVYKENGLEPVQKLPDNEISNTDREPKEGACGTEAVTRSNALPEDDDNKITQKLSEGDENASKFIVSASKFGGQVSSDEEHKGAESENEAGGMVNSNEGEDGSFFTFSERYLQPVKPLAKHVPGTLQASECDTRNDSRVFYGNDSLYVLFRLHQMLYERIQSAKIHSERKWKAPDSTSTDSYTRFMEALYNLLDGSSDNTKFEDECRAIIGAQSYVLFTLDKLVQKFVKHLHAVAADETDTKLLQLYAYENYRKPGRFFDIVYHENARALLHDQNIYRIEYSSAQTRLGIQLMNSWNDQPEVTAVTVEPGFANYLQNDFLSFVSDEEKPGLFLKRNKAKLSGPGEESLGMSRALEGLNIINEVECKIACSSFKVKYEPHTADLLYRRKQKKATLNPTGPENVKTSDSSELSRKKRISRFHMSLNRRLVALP
UniProt Q9XIK6: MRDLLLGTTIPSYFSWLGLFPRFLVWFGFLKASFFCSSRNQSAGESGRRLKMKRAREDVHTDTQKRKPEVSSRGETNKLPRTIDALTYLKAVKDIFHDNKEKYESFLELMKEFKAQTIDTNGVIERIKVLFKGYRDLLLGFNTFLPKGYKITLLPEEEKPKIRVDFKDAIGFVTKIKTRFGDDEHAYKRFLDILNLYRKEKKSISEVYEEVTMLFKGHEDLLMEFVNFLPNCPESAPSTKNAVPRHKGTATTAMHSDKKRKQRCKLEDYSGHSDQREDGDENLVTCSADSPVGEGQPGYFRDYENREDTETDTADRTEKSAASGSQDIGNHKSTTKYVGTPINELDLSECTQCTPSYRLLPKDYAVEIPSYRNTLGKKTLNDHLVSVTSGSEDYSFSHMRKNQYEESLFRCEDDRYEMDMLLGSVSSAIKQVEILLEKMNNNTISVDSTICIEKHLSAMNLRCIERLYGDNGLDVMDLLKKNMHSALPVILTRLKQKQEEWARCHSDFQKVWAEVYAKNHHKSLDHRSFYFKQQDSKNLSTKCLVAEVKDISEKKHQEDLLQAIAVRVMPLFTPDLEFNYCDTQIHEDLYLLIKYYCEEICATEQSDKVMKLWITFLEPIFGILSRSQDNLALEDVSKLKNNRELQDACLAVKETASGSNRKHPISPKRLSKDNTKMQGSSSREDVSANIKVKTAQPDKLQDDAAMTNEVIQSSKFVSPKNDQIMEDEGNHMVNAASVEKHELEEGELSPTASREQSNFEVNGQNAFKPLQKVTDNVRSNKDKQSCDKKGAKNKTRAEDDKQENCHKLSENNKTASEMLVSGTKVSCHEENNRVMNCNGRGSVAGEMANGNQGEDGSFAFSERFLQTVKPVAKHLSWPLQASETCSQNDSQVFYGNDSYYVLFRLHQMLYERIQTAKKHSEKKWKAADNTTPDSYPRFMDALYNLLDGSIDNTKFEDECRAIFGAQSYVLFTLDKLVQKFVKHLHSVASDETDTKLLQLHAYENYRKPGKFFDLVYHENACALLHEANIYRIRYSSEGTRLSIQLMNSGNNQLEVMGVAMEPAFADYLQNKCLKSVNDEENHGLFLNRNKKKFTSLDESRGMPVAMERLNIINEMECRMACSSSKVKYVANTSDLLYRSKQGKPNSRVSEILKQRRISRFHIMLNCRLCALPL

T1: GST-VAL1-CW (aa 458–673) (Arabidopsis thaliana) (UniProt Q8W4L5)
T1 sequence: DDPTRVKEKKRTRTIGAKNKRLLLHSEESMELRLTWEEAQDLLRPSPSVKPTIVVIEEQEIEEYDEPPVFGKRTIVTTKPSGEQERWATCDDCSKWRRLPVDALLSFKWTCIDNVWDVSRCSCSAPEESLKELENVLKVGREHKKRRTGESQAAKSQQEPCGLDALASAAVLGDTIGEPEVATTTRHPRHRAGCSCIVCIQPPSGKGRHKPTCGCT

B1: VAL1-B3.CW (aa 208–673), fused to the GAL4 activating domain (domain or fragment, UniProt Q8W4L5 208-673)
chain: EAVEGMKHISPSQSNMVHCSASNILQKPSRPAISTPPVASKSAQARIGRPPVEGRGRGHLLPRYWPKYTDKEVQQISGNLNLNIVPLFEKTLSASDAGRIGRLVLPKACAEAYFPPISQSEGIPLKIQDVRGREWTFQFRYWPNNNSRMYVLEGVTPCIQSMMLQAGDTVTFSRVDPGGKLIMGSRKAANAGDMQGCGLTNGTSTEDTSSSGVTENPPSINGSSCISLIPKELNGMPENLNSETNGGRIGDDPTRVKEKKRTRTIGAKNKRLLLHSEESMELRLTWEEAQDLLRPSPSVKPTIVVIEEQEIEEYDEPPVFGKRTIVTTKPSGEQERWATCDDCSKWRRLPVDALLSFKWTCIDNVWDVSRCSCSAPEESLKELENVLKVGREHKKRRTGESQAAKSQQEPCGLDALASAAVLGDTIGEPEVATTTRHPRHRAGCSCIVCIQPPSGKGRHKPTCGCT
B2: VAL1-CW.EAR (aa 458–790), fused to the GAL4 activating domain (domain or fragment, UniProt Q8W4L5 458-790)
chain: DDPTRVKEKKRTRTIGAKNKRLLLHSEESMELRLTWEEAQDLLRPSPSVKPTIVVIEEQEIEEYDEPPVFGKRTIVTTKPSGEQERWATCDDCSKWRRLPVDALLSFKWTCIDNVWDVSRCSCSAPEESLKELENVLKVGREHKKRRTGESQAAKSQQEPCGLDALASAAVLGDTIGEPEVATTTRHPRHRAGCSCIVCIQPPSGKGRHKPTCGCTVCSTVKRRFKTLMMRRKKKQLERDVTAAEDKKKKDMELAESDKSKEEKEVNTARIDLNSDPYNKEDVEAVAVEKEESRKRAIGQCSGVVAQDASDVLGVTELEGEGKNVREEPRVSS
B3: VAL1-PHD (aa 1–207), fused to the GAL4 activating domain (domain or fragment, UniProt Q8W4L5 1-207)
chain: MFEVKMGSKMCMNASCGTTSTVEWKKGWPLRSGLLADLCYRCGSAYESSLFCEQFHKDQSGWRECYLCSKRLHCGCIASKVTIELMDYGGVGCSTCACCHQLNLNTRGENPGVFSRLPMKTLADRQHVNGESGGRNEGDLFSQPLVMGGDKREEFMPHRGFGKLMSPESTTTGHRLDAAGEMHESSPLQPSLNMGLAVNPFSPSFAT
B4: VAL1-B3 (aa 208–457), fused to the GAL4 activating domain (domain or fragment, UniProt Q8W4L5 208-457)
chain: EAVEGMKHISPSQSNMVHCSASNILQKPSRPAISTPPVASKSAQARIGRPPVEGRGRGHLLPRYWPKYTDKEVQQISGNLNLNIVPLFEKTLSASDAGRIGRLVLPKACAEAYFPPISQSEGIPLKIQDVRGREWTFQFRYWPNNNSRMYVLEGVTPCIQSMMLQAGDTVTFSRVDPGGKLIMGSRKAANAGDMQGCGLTNGTSTEDTSSSGVTENPPSINGSSCISLIPKELNGMPENLNSETNGGRIG
B5: VAL1-EAR (aa 674–790), fused to the GAL4 activating domain (domain or fragment, UniProt Q8W4L5 674-790)
chain: VCSTVKRRFKTLMMRRKKKQLERDVTAAEDKKKKDMELAESDKSKEEKEVNTARIDLNSDPYNKEDVEAVAVEKEESRKRAIGQCSGVVAQDASDVLGVTELEGEGKNVREEPRVSS
B6: VAL1-PHD.B3 (aa 1–457), fused to the GAL4 activating domain (domain or fragment, UniProt Q8W4L5 1-457)
chain: MFEVKMGSKMCMNASCGTTSTVEWKKGWPLRSGLLADLCYRCGSAYESSLFCEQFHKDQSGWRECYLCSKRLHCGCIASKVTIELMDYGGVGCSTCACCHQLNLNTRGENPGVFSRLPMKTLADRQHVNGESGGRNEGDLFSQPLVMGGDKREEFMPHRGFGKLMSPESTTTGHRLDAAGEMHESSPLQPSLNMGLAVNPFSPSFATEAVEGMKHISPSQSNMVHCSASNILQKPSRPAISTPPVASKSAQARIGRPPVEGRGRGHLLPRYWPKYTDKEVQQISGNLNLNIVPLFEKTLSASDAGRIGRLVLPKACAEAYFPPISQSEGIPLKIQDVRGREWTFQFRYWPNNNSRMYVLEGVTPCIQSMMLQAGDTVTFSRVDPGGKLIMGSRKAANAGDMQGCGLTNGTSTEDTSSSGVTENPPSINGSSCISLIPKELNGMPENLNSETNGGRIG
B7: His-SNL1, full length (protein, UniProt Q9SRH9 1-1372)
chain: MKRIRDDVYASGSQFRRPLGSSRGQLCGQSPVHGSGDTEEEEEGGSRRVSQKLTTNDALSYLREVKEMFQDQREKYDRFLEVMKDFKAQRTDTGGVIARVKELFKGHNNLIYGFNTFLPKGYEITLIEEDDALPKKTVEFEQAINFVNKIKMRFKHDEHVYKSFLEILNMYRKENKEIKEVYNEVSILFQGHLDLLEQFTRFLPASLPSHSAAQHSRSQAQQYSDRGSDPPLLHQMQVEKERRRERAVALRGDYSVERYDLNDDKTMVKIQREQRKRLDKENRARRGRDLDDREAGQDNLHHFPEKRKSSRRAEALEAYSGSASHSEKDNLKSMYKQAFVFCEKVKDRLCSQDDYQTFLKCLNIFSNGIIQRKDLQNLVSDLLGKFPDLMDEFNQFFERCESITDGFQRLAGVMSKKLFSSEEQLSRPMKVEEKESEHKPELEAVKETEQCKKEYMGKSIQELDLSDCECCTPSYRLLPADYPIPIASQRSELGAEVLNDHWVSVTSGSEDYSFKHMRRNQYEESLFRCEDDRFELDMLLESVSSAARSAESLLNIITEKKISFSGSFRIEDHFTALNLRCIERLYGDHGLDVIDILNKNPATALPVILTRLKQKQGEWKKCRDDFDKVWANVYAKNHYKSLDHRSFYFKQQDSKNLSAKSLLAEIKELKEKSQNDDDVLLSISAGYRQPINPNLEYEYLNRAIHEDMFKVVQFSCEELCSTKEQLSKVLRLWENFLEAVLGVPPRAKGTDLVEDVVINPKTLDVNHSTSPNGEAAVSSGGDTARLASRKLKSAANGDENSSSGTFKHGIGLLNKDSTGKENLEDVEIANRDGVACSAVKPQKEQETGNEAEKRFGKPIPMDISERAAISSISIPSGAENNHCVVGKEVLPGAHEIQAKPSDTLTDIHHDVDSIETVHSTQGGDVGNSIVLANGLRSDSSKGTRNSDDPEGPSRNEKEEGELSPNGDFEDNFGVYKDHGVKSTSKPENSAEAEVEADAEVENEDDADDVDSENASEASGTESGGDVCSQDEDREEENGEHDEIDGKAESEGEAEGMDPHLLEGESELLPQSERVLLSVRPLSKHVAAVLCDERTKDLQVFYGNDDFYVLFRLHQILYERILYAKRNCSGGELKSKNLKDTNAGDPYARFMRVLYGLLDGSAENTKFEDECRAIIGNQSYVLFTLDKLIYRLVKQLQAIVADEMDNKLLQLYEYEKSRKPGRVIDSVYYENVRVLVHEENIYRLECSSLPSRLSIQLMDNIIEKPEAYAVSMDPTFASYMQTELLSVSSGKKEEGHDIVLQRNLTGLYDLCKAMEGVEVVNGLECKMSCSSYKIAYVLDTEDYFHRKKKKKKTEQLWQRNKVRVERFHRFLSA
B8: His-SNL2, full length (protein, UniProt Q9LFQ3 1-1367)
chain: MKRIRDDIYATGSQFKRPLGSSRGESYEQSPITGGGSIGEGGINTQKLTTDDALTYLKEVKEMFQDQRDKYDMFLEVMKDFKAQKTDTSGVISRVKELFKGHNNLIFGFNTFLPKGFEITLDDVEAPSKKTVEFEEAISFVNKIKTRFQHNELVYKSFLEILNMYRKDNKDITEVYNEVSTLFEDHSDLLEEFTRFLPDSLAPHTEAQLLRSQAQRYDDRGSGPPLVRRMFMEKDRRRERTVASRGDRDHSVDRSDLNDDKSMVKMHRDQRKRVDKDNRERRSRDLEDGEAEQDNLQHFSEKRKSSRRMEGFEAYSGPASHSEKNNLKSMYNQAFLFCEKVKERLCSQDDYQAFLKCLNMFSNGIIQRKDLQNLVSDVLGKFPDLMDEFNQFFERCESIDGFQHLAGVMSKKSLGSEENLSRSVKGEEKDREHKRDVEAAKEKERSKDKYMGKSIQELDLSDCERCTPSYRLLPPDYPIPSVRHRQKSGAAVLNDHWVSVTSGSEDYSFKHMRRNQYEESLFRCEDDRFELDMLLESVGSAAKSAEELLNIIIDKKISFEGSFRIEDHFTALNLRCIERLYGDHGLDVTDLIRKNPAAALPVILTRLKQKQDEWTKCREGFNVVWADVYAKNHYKSLDHRSFYFKQQDSKNLSAKALVSEVKDLKEKSQKEDDVVLSISAGYRQPIIPHLEYDYLDRAIHEDLFKLVQFSCEEICSTKEQTGKVLKLWANFLELMLDVAPRAKGSDSVEDVVETQHQRAFTSGEANESSDAISLVSRQLKFATNGDVHASSGVSKHGETGLLNRDSSGKENLKDGDLANKDVATCAEKPQKDQEIGNGAAKRSGDVDERVATSSSSFPSGVENNNGKVGSRDSSGSRGILSKPSEAIDKVDSIQHTQGVDIGRIIVLGNGLQSDTSKANSNYDESGGPSKIEKEEGELSPVGDSEDNFVVYEDRELKATAKTEHSVEAEGENDEDADDEDGDDASEAGEDASGTESIGDECSQDDNGVEEEGEHDEIDGKAESEGEAEGMESHLIEDKGLFPSSERVLLSVKPLSKHIAAAALVDEKKKDSRVFYGNDDFYVLFRLHRVSAIDSYDLLSHILYERILSAKTYCSGSEMKLRNTKDTCSPDPYARFMNALFSLLNGSAENSKFEDECRAIIGNQSYVLFTLEKLIYKLVKQLQAVVADDMDNKLLQLYEYENSRRPGRVFDSVYYENARILLHEENIYRLECSSSPSRLSIQLMDNIIEKPDAYAVSMEPTFTSYLQNEFLSNSSGKKELQDIVLQRNMRGYNGLDDLAVACKAMEGVQVINGLECKMSCSSYKISYVLDTEDFFHRKKKQKKSNNLSLAKLSQNRIARFHKFLSASR

Molecular target: SNL3 (SIN3-LIKE 3), full length, fused to the GAL4 binding domain (Arabidopsis thaliana) (UniProt O48686)
Experiment: two-hybrid; Matchmaker GAL4 two-hybrid system 3, yeast AH109; VAL1 constructs in pGADT7 (AD), SNL constructs in pGBKT7 (BD); growth on medium lacking Trp, Leu, His and Ade, 3-5 d at 30 °C

| Molecule | binding |
| --- | --- |
| B1 | binds |
| B2 | binds |
| B3 | no binding |
| B4 | no binding |
| B5 | no binding |
| B6 | no binding |

Molecular target: T1, GST-VAL1-CW (aa 458–673) (Arabidopsis thaliana)
Experiment: pull-down; supernatants of E. coli lysates in PBS pH 7.5 mixed in roughly equal amounts, incubated with glutathione beads or Ni Singarose 6FF overnight at 4 °C, washed five times with PBS; GST fusion held, His fusion detected with anti-His antibody

| Molecule | binding |
| --- | --- |
| His-SNL4, full length (from UniProt O04539 1-1326) | binds |
| His-SNL5, full length (from UniProt Q9XIE1 1-1162) | binds |
| His-SNL3, full length (from UniProt O48686 1-1330) | binds |
| His-SNL6, full length (from UniProt Q9XIK6 1-1173) | binds |
| B7 | binds |
| B8 | binds |
